Assay: general procedure: Fmoc solid-phase peptide synthesis; Rink amide resin AM; HBTU
Conditions: whole synthesis, Agilent Technologies 1260 Infinity HPLC with a kromasil C18-5 column

EWPRPQIPP-NH2
final HPLC purity: >95%
